From paper PMC4737187
No constants are given. Whether binding was seen depends on the method and setting. Binding seen in cells or lysates may run through a third protein. Some results given as binding are weak or reduced against the parent protein; the word gives no strength.

Protein sequences, listed by entry. Tags and fused reporters are not part of them. Residues count along the entry.
UniProt P35869, residues 11-848: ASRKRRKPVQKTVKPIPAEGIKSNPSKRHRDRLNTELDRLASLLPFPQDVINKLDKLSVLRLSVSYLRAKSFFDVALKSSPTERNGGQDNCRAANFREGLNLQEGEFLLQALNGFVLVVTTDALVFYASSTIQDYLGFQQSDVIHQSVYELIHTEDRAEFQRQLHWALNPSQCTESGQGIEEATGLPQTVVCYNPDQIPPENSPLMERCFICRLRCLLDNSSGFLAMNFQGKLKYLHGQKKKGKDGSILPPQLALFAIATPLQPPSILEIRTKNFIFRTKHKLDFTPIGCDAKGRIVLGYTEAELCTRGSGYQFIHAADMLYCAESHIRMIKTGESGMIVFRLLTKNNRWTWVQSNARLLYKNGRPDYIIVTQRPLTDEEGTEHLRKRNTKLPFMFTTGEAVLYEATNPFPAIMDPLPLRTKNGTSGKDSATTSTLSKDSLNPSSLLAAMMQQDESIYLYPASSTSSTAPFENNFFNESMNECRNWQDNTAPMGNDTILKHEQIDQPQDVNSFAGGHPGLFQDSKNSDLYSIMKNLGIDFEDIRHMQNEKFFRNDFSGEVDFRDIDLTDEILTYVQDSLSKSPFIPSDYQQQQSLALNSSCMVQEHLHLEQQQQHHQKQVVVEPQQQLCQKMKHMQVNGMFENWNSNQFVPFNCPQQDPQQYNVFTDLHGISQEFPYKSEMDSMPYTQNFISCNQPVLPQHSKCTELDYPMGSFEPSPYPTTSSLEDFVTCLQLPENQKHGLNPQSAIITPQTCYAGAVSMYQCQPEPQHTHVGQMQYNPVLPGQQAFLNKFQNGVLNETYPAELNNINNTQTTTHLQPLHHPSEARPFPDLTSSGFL

B1: E2 subunit of pyruvate dehydrogenase complex (PDC-E2), endogenous (protein, UniProt P10515 87-647)
chain: SLPPHQKVPLPSLSPTMQAGTIARWEKKEGDKINEGDLIAEVETDKATVGFESLEECYMAKILVAEGTRDVPIGAIICITVGKPEDIEAFKNYTLDSSAAPTPQAAPAPTPAATASPPTPSAQAPGSSYPPHMQVLLPALSPTMTMGTVQRWEKKVGEKLSEGDLLAEIETDKATIGFEVQEEGYLAKILVPEGTRDVPLGTPLCIIVEKEADISAFADYRPTEVTDLKPQVPPPTPPPVAAVPPTPQPLAPTPSAPCPATPAGPKGRVFVSPLAKKLAVEKGIDLTQVKGTGPDGRITKKDIDSFVPSKVAPAPAAVVPPTGPGMAPVPTGVFTDIPISNIRRVIAQRLMQSKQTIPHYYLSIDVNMGEVLLVRKELNKILEGRSKISVNDFIIKASALACLKVPEANSSWMDTVIRQNHVVDVSVAVSTPAGLITPIVFNAHIKGVETIANDVVSLATKAREGKLQPHEFQGGTFTISNLGMFGIKNFSAIINPPQACILAIGASEDKLVPADNEKGFDVASMMSVTLSCDHRVVDGAVGAQWLAEFRKYLEKPITMLL
B2: E2 subunit of pyruvate dehydrogenase complex (PDC-E2), endogenous, P10515 87-647 (protein)
chain: B1 chain

What was measured:
[1] = target: FLAG-HA-tagged arylhydrocarbon receptor (eAhR) (human) (UniProt P35869); assay: co-IP; FLAG-HA-tagged bait purified on anti-FLAG antibody-conjugated agarose from the solubilized chromatin fraction of stably transduced HeLa S3 cells treated with 100 nM indirubin for 3 h; western blotting; mock purification from non-transduced cells
[2] = target: Arylhydrocarbon receptor (AhR), endogenous (human (endogenous in HeLa S3)) (UniProt P35869); assay: co-IP; chromatin fraction of HeLa S3 cells incubated with anti-AhR (N-19) or anti-PDC-E2 (ab110332) antibody, protein G-Agarose, 4°C; normal goat or mouse IgG as control; western blotting
[3] = target: FLAG-HA-tagged pyruvate kinase M2 (ePKM2) (human), P14618; assay: co-IP; FLAG-HA-tagged bait purified on anti-FLAG antibody-conjugated agarose from the solubilized chromatin fraction of stably transduced HeLa S3 cells treated with 100 nM indirubin for 3 h; western blotting; mock purification from non-transduced cells; details: remark: other sources report otherwise

Binder	binding [1]	binding [2]	binding [3]
B1	binds	binds	
B2			binds
